# From PMC8384837
# Substitutions are numbered along the chain they refer to. The list shows a part of the results. For some assays here: At the low end of the ranking, values are background and their order means little.
# What was measured:
# Conditions in all cases: yeast three-hybrid, YBZ-1, SC-Leu-His + 0.5 mM 3-AT, 4 days
# [1] = target: T1, PUM1 PUF domain R3-LRV C935L + Q939V (UniProt Q14671)
# T1 sequence: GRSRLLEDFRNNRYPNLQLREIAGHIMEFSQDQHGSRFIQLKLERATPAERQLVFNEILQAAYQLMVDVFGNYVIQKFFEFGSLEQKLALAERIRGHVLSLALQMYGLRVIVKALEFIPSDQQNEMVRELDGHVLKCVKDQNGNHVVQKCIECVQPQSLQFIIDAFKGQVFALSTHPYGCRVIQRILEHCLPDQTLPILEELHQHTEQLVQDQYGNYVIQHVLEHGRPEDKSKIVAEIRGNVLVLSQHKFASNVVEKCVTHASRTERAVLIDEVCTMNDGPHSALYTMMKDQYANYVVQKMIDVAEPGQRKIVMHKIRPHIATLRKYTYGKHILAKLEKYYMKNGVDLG
# [2] = target: T2, PUM1 PUF domain R3-LSA C935L + R936S + Q939A (UniProt Q14671)
# T2 sequence: T1 sequence with R109S, V112A
# [3] = target: T3, PUM1 PUF domain R3-LSC C935L + R936S + Q939C (UniProt Q14671)
# T3 sequence: T1 sequence with R109S, V112C
# [4] = target: T4, PUM1 PUF domain R3-LSE C935L + R936S + Q939E (UniProt Q14671)
# T4 sequence: T1 sequence with R109S, V112E
# [5] = target: T5, PUM1 PUF domain R3-LSG C935L + R936S + Q939G (UniProt Q14671)
# T5 sequence: T1 sequence with R109S, V112G
# [6] = target: T6, PUM1 PUF domain R3-LSR C935L + R936S + Q939R (Homo sapiens) (UniProt Q14671)
# T6 sequence: T1 sequence with R109S, V112R
# [7] = target: T7, PUM1 PUF domain R3-LSS C935L + R936S + Q939S (UniProt Q14671)
# T7 sequence: T1 sequence with R109S, V112S
# [8] = target: T8, PUM1 PUF domain R3-LSV C935L + R936S + Q939V (UniProt Q14671)
# T8 sequence: T1 sequence with R109S
# [9] = target: T9, PUM1 PUF domain R3-LWA C935L + R936W + Q939A (UniProt Q14671)
# T9 sequence: T1 sequence with R109W, V112A
# [10] = target: T10, PUM1 PUF domain R3-LWE C935L + R936W + Q939E (UniProt Q14671)
# T10 sequence: T1 sequence with R109W, V112E
# [11] = target: T11, PUM1 PUF domain R3-LWG C935L + R936W + Q939G (Homo sapiens) (UniProt Q14671)
# T11 sequence: T1 sequence with R109W, V112G
# [12] = target: T12, PUM1 PUF domain R3-LWI C935L + R936W + Q939I (UniProt Q14671)
# T12 sequence: T1 sequence with R109W, V112I
# [13] = target: T13, PUM1 PUF domain R3-LWL C935L + R936W + Q939L (UniProt Q14671)
# T13 sequence: T1 sequence with R109W, V112L
# [14] = target: T14, PUM1 PUF domain R3-LWN C935L + R936W + Q939N (UniProt Q14671)
# T14 sequence: T1 sequence with R109W, V112N
# [15] = target: T15, PUM1 PUF domain R3-LWR C935L + R936W + Q939R (Homo sapiens) (UniProt Q14671)
# T15 sequence: T1 sequence with R109W, V112R
# [16] = target: T16, PUM1 PUF domain R3-LWT C935L + R936W + Q939T (UniProt Q14671)
# T16 sequence: T1 sequence with R109W, V112T
# [17] = target: T17, PUM1 PUF domain R3-LYE C935L + R936Y + Q939E (Homo sapiens) (UniProt Q14671)
# T17 sequence: T1 sequence with R109Y, V112E
# [18] = target: T18, PUM1 PUF domain R3-LYG C935L + R936Y + Q939G (UniProt Q14671)
# T18 sequence: T1 sequence with R109Y, V112G
# [19] = target: T19, PUM1 PUF domain R3-LYM C935L + R936Y + Q939M (UniProt Q14671)
# T19 sequence: T1 sequence with R109Y, V112M
# [20] = target: T20, PUM1 PUF domain R3-LYR C935L + R936Y + Q939R (Homo sapiens) (UniProt Q14671)
# T20 sequence: T1 sequence with R109Y, V112R
# [21] = target: T21, PUM1 PUF domain R3-LYS C935L + R936Y + Q939S (UniProt Q14671)
# T21 sequence: T1 sequence with R109Y, V112S
# [22] = target: T22, PUM1 PUF domain R3-MCG C935M + R936C + Q939G (UniProt Q14671)
# T22 sequence: T1 sequence with L108M, R109C, V112G
# [23] = target: T23, PUM1 PUF domain R3-MPR C935M + R936P + Q939R (UniProt Q14671)
# T23 sequence: T1 sequence with L108M, R109P, V112R
# [24] = target: T24, PUM1 PUF domain R3-MRE C935M + Q939E (Homo sapiens) (UniProt Q14671)
# T24 sequence: T1 sequence with L108M, V112E
# [25] = target: T25, PUM1 PUF domain R3-MRG C935M + Q939G (UniProt Q14671)
# T25 sequence: T1 sequence with L108M, V112G
# [26] = target: T26, PUM1 PUF domain R3-MRL C935M + Q939L (UniProt Q14671)
# T26 sequence: T1 sequence with L108M, V112L
# [27] = target: T27, PUM1 PUF domain R3-MRT C935M + Q939T (UniProt Q14671)
# T27 sequence: T1 sequence with L108M, V112T
# [28] = target: T28, PUM1 PUF domain R3-MRY C935M + Q939Y (UniProt Q14671)
# T28 sequence: T1 sequence with L108M, V112Y
# [29] = target: T29, PUM1 PUF domain R3-MSN C935M + R936S + Q939N (UniProt Q14671)
# T29 sequence: T1 sequence with L108M, R109S, V112N
sequence,measurement,setting,value
GGCUAGAACUAGUGGAUCCCCCGGCGCCCGGCGGCUCGAGCCCGGGUAAGUGUAACUAGUCUGCAUGCCGCCGGGCGCCAUGCCUGCAGGUCGACUCUAGAAAACAUG,binding signal (log2 enrichment (interaction score)),[1],-3.82
same,binding signal (log2 enrichment (interaction score)),[2],< -9.69
same,binding signal (log2 enrichment (interaction score)),[3],< -7.34
same,binding signal (log2 enrichment (interaction score)),[4],< -8.38
same,binding signal (log2 enrichment (interaction score)),[5],-6.25
same,binding signal (log2 enrichment (interaction score)),[6],-2.83
same,binding signal (log2 enrichment (interaction score)),[7],-8.09
same,binding signal (log2 enrichment (interaction score)),[8],-6.96
same,binding signal (log2 enrichment (interaction score)),[9],-5.96
same,binding signal (log2 enrichment (interaction score)),[10],< -6.4
same,binding signal (log2 enrichment (interaction score)),[11],-0.21
same,binding signal (log2 enrichment (interaction score)),[12],< -7.4
same,binding signal (log2 enrichment (interaction score)),[13],< -9.42
same,binding signal (log2 enrichment (interaction score)),[14],< -6.95
same,binding signal (log2 enrichment (interaction score)),[15],-1.34
same,binding signal (log2 enrichment (interaction score)),[16],< -7.23
same,binding signal (log2 enrichment (interaction score)),[17],-3.34
same,binding signal (log2 enrichment (interaction score)),[18],-3.7
same,binding signal (log2 enrichment (interaction score)),[19],< -8.28
same,binding signal (log2 enrichment (interaction score)),[20],-0.04
same,binding signal (log2 enrichment (interaction score)),[21],-6.57
same,binding signal (log2 enrichment (interaction score)),[22],< -8.71
same,binding signal (log2 enrichment (interaction score)),[23],< -6.44
same,binding signal (log2 enrichment (interaction score)),[24],-1.73
same,binding signal (log2 enrichment (interaction score)),[25],-6.34
same,binding signal (log2 enrichment (interaction score)),[26],< -7.5
same,binding signal (log2 enrichment (interaction score)),[27],< -7.81
same,binding signal (log2 enrichment (interaction score)),[28],< -6.83
same,binding signal (log2 enrichment (interaction score)),[29],-3.47

# Exported tab-delimited: part of the list above.
sequence	measurement	setting	value
GGCUAGAACUAGUGGAUCCCCCGGCGCCCGGCGGCUCGAGCCCGGGUAAGUGUAACUAGUCUGCAUGCCGCCGGGCGCCAUGCCUGCAGGUCGACUCUAGAAAACAUG	binding signal (log2 enrichment (interaction score))	[5]	-6.25
same	binding signal (log2 enrichment (interaction score))	[6]	-2.83
